# Article PMC10204944, “Development and characterization of nanobodies that specifically target the oncogenic Phosphatase of Regenerating Liver-3 (PRL-3) and impact its interaction with a known binding partner, CNNM3” (PLOS ONE, 2023)
# The chains behind the UniProt entries cited, without tags or fusion partners. Residues count along the entry.
# UniProt O75365: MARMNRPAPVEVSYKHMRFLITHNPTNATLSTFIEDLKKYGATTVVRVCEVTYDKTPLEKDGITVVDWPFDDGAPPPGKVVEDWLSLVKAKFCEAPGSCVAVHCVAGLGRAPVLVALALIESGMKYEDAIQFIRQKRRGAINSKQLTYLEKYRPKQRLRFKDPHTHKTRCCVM
# UniProt Q8NE01, residues 309-452: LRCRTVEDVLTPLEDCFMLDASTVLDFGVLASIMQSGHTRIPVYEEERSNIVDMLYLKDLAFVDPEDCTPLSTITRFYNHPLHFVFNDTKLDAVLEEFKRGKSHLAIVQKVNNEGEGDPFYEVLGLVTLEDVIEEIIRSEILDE
# No constants are given. Whether binding was seen depends on the method and setting. Some results given as binding are weak or reduced against the parent protein; the word gives no strength.
# Target: recombinant 3XFLAG-PRL-3 (human) (UniProt O75365)
# Assay: co-IP; purified 3XFLAG-PRL-3 on anti-FLAG M2 magnetic beads; CBS-HA and nanobody added in 1:1.1 molar ratios, alone, one after the other or together, 1 h each at 4 C; 300 mM NaCl, 20 mM Tris pH 7.5; western blot (anti-HA, anti-His, anti-FLAG); both purified
substance,measurement,value
CBS-HA (CNNM3 CBS domain pair fused to a hemagglutinin tag) (from UniProt Q8NE01 309-452) (domain or fragment),binding,binds
